{"source": "patent US11897961B2", "about": "“Anti-CD123 antibodies and conjugates and derivatives thereof” (IMMUNOGEN, INC., priority 2015, dated 2024)", "molecules": {"B1": {"name": "muCD123-6: murine anti-CD123 monoclonal antibody, HCVR SEQ ID NO: 28, LCVR SEQ ID NO: 29 (antibody, V domains shown)", "VH": "EFQLQQSGPELVKPGASVKMSCKASGYIFTSSIMHWMKQKPGQGLEWIGYIKPYNDGTKYNEKFKGKATLTSDKSSSTANMELNSLTSEDSAVYYCAREGGNDYYDTMDYWGQGTSVTVSS", "VL": "DIKMTQSPSSMYASLGERVTITCKASQDINSYLSWFQQKPGKSPKTLIYRVNRLVDGVPSRFSGSGSGQDYSLTISSLEYEDMGIYYCLQYDAFPYTFGGGTKLEIKR"}}, "test_system": "TF-1 cells", "experiment": "Inhibition of IL-3-dependent proliferation of TF-1 cells (WST-8)", "format": "cell-based, human", "description": "The ability of anti-CD123 antibodies to inhibit IL3-mediated signaling and proliferation was examined in vitro using the erythroleukemia cell line TF-1 that can proliferate only in the presence of one of the following growth factors, either IL-3 or GM-CSF. TF-1 cells were cultured in the complete RPMI medium (RPMI-1640, 10% fetal bovine serum and 50 μg/mL gentamicin sulfate; all reagents were from Invitrogen) supplemented with GM-CSF (2 ng/mL). Prior to setting up the proliferation assays, the cells were washed and then starved of the growth factors overnight. […] TF-1 cells were plated at 6,000 cells per well in the complete RPMI medium in either the presence or absence of 10 μg/mL of an anti-CD123 antibody. A growth factor, either IL-3 (1 ng/mL) or GM-CSF (2 ng/mL), was added to the cells to initiate cell proliferation. […] The relative numbers of viable cells in each well were determined by the colorimetric WST-8 assay (Dojindo Molecular Technologies, Inc., Rockville, MD, US). […] Then the absorbance was measured on a plate-reader spectrophotometer in the dual wavelength mode 450 nm/650 nm, and the absorbance at the 650 nm (non-specific light scattering by cells) was subtracted from that at the 450 nm.\nTF-1 cells were plated at 6,000 cells per well in 100 μL culture medium. […] Relative cell number in each well was determined by WST-8 assay as described above. […]", "note": "Some of these results come from one statement about several compounds together."}
{"molecule": "B1", "values": [{"measurement": "number of TF-1 cells relative to that in the control (cells grown in the absence of an antibody)", "setting": "10 μg/mL antibody, IL-3 1 ng/mL, 3 days", "result": "less than 5%"}, {"measurement": "relative cell number at the highest antibody concentration tested", "setting": "Example 4, IL3 1 ng/mL", "result": "less than 1%"}]}
